# Values quoted from earlier work in US20220090005A1, “Supplemented Serum-Containing Culture Medium for Enhanced Arpe-19 Growth and Human Cytomegalovirus Vaccine Production” (priority 2019, published 2022).
# At least one structure is not confirmed: it was looked up by name or label, or the drawing left a doubt.
# Assays:
# HSV-2 = settings: serum-containing culture medium
# [1] = test system: rat pulmonary microvascular endothelial cells
# [2] = test system: foot-and-mouth disease virus (FMDV); settings: infected cattle
# HCMV = settings: treatment of cells with pharmacological concentrations
smiles,measurement,setting,value
C[C@@H]1C[C@H]2[C@@H]3CCC4=CC(=O)C=C[C@]4(C)[C@@]3(F)[C@@H](O)C[C@]2(C)[C@@]1(O)C(=O)CO [dexamethasone],HSV-2 viral productivity in NIH3T3 cells,HSV-2; NIH3T3 cells,increased
same,HSV-2 viral productivity in SME cells,HSV-2; SME (Swiss mouse embryo) cells,decreased
same,retroviral infectivity,[1],increased
same,effect on FMDV,[2],inhibit
same,HCMV replication,HCMV,enhanced HCMV replication
